According to the supplement of paper PMC10849652:
The list shows a part of the results.

Protein sequences, listed by entry. Tags and fused reporters are not part of them. Lines headed by an entry give the natural chain unless they say otherwise; changes in a name come on top.
UniProt Q4J6C6, whole entry, looked up: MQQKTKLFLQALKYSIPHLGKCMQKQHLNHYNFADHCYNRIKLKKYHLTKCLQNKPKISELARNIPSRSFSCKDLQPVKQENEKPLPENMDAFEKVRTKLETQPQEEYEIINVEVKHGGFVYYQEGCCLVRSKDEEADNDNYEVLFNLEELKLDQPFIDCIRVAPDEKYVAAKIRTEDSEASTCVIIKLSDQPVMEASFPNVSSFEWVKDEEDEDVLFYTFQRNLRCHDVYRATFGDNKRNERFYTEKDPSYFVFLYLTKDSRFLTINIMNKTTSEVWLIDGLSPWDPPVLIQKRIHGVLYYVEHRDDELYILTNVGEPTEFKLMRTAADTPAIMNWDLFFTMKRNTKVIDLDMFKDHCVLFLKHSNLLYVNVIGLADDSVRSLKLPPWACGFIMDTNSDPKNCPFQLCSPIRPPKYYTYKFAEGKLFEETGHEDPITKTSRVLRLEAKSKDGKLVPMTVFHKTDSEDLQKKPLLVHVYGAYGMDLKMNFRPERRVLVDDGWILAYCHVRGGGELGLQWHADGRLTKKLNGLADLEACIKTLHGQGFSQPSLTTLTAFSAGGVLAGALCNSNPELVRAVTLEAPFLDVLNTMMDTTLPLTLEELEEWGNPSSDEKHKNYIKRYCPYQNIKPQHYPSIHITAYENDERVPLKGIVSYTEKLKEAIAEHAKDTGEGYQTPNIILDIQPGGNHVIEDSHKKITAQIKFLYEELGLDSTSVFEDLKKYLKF
UniProt O43395: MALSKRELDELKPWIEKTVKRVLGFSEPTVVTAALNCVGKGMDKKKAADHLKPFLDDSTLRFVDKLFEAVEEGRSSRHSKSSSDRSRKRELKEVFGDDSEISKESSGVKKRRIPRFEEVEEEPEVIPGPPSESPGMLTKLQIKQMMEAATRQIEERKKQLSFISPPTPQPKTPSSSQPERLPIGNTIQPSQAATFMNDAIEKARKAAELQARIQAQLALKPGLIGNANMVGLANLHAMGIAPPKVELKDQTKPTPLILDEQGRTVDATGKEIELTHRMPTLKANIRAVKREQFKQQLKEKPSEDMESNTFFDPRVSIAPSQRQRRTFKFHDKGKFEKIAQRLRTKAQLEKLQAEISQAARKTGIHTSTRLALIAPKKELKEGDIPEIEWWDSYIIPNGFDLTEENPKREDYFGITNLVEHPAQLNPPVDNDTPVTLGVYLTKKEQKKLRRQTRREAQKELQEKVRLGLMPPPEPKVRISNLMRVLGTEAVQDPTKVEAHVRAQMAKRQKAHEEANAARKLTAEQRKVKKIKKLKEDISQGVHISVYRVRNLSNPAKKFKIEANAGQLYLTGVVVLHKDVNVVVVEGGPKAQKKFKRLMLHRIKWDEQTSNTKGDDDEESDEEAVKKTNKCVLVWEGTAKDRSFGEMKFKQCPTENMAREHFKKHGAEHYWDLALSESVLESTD
UniProt O75688: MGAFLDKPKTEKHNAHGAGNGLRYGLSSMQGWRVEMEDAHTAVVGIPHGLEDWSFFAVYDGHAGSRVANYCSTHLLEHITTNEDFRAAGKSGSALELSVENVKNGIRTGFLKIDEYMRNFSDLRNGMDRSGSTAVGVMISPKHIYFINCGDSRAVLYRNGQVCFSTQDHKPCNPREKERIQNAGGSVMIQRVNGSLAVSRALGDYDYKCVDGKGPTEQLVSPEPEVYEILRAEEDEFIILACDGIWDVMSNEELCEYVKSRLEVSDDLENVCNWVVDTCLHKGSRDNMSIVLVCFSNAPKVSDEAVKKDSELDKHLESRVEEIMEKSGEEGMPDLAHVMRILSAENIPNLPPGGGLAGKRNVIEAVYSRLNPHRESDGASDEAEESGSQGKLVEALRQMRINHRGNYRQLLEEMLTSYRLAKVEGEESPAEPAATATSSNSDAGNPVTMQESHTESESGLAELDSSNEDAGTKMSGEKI
UniProt P31323, whole entry, looked up: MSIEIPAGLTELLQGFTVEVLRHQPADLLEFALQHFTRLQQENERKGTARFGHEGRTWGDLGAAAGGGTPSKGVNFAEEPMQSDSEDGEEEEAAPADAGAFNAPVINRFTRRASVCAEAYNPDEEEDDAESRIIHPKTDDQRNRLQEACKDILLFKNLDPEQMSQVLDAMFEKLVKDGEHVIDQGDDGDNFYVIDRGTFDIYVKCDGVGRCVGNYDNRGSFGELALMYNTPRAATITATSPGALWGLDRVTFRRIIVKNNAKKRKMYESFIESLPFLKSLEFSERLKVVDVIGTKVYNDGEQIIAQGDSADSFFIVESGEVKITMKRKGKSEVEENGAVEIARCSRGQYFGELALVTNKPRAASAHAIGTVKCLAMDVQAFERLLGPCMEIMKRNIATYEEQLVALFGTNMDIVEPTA
UniProt O75569: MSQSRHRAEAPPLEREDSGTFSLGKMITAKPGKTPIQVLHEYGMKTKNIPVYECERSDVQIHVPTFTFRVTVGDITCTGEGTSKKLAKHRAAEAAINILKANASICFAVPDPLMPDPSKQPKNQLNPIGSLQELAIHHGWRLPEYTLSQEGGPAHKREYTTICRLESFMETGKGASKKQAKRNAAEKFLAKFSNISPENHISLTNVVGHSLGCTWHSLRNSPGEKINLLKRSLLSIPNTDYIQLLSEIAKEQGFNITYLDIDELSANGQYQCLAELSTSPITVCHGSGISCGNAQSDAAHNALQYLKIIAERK
UniProt Q13162: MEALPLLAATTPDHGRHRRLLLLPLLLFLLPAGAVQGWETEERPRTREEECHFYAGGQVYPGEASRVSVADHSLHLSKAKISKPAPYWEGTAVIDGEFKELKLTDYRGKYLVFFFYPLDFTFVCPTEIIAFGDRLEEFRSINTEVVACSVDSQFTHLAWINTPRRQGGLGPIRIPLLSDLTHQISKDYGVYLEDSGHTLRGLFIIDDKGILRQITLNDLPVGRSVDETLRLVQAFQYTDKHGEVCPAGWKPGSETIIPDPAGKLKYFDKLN
UniProt Q5MIZ7: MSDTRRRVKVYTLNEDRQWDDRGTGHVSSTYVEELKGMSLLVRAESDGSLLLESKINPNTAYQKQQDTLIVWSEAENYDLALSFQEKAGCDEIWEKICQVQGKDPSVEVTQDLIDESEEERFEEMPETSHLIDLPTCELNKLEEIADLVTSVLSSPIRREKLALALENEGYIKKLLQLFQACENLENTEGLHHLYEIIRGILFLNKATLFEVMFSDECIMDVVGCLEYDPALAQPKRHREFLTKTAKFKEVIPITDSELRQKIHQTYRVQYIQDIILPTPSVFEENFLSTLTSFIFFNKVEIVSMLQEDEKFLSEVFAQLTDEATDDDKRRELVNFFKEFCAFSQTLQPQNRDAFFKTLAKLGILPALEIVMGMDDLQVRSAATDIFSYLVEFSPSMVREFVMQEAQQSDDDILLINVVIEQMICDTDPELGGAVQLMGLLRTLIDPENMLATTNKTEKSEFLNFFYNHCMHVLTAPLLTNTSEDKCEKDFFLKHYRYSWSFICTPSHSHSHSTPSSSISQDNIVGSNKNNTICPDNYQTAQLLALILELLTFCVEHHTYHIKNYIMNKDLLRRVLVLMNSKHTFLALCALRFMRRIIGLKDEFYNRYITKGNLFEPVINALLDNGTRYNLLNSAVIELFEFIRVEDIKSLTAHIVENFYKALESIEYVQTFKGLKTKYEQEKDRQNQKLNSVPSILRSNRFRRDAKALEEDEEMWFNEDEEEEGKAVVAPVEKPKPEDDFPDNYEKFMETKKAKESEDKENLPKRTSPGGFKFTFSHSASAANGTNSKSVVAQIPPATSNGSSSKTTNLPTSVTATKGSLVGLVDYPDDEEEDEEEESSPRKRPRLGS
UniProt P30153, whole entry, looked up: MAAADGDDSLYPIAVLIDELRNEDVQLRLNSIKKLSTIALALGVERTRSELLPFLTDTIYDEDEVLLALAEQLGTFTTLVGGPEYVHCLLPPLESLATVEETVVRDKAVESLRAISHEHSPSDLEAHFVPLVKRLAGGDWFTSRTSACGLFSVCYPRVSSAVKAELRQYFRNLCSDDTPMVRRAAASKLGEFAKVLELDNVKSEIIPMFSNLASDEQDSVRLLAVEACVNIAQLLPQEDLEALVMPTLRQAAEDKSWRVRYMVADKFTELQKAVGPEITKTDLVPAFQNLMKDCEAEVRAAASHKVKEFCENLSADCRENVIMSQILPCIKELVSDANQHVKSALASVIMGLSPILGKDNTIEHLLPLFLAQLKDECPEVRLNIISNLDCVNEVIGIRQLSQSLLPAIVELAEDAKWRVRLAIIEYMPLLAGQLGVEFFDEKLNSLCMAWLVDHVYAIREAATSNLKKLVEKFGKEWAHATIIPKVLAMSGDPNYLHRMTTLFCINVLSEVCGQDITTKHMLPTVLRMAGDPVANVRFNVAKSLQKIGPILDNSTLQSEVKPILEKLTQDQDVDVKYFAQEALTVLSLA
UniProt Q9H875: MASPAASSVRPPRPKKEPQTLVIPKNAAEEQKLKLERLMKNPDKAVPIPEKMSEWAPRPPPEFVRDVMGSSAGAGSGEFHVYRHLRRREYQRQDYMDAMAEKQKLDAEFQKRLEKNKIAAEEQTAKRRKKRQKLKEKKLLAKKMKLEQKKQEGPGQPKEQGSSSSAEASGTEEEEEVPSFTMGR
UniProt Q13356: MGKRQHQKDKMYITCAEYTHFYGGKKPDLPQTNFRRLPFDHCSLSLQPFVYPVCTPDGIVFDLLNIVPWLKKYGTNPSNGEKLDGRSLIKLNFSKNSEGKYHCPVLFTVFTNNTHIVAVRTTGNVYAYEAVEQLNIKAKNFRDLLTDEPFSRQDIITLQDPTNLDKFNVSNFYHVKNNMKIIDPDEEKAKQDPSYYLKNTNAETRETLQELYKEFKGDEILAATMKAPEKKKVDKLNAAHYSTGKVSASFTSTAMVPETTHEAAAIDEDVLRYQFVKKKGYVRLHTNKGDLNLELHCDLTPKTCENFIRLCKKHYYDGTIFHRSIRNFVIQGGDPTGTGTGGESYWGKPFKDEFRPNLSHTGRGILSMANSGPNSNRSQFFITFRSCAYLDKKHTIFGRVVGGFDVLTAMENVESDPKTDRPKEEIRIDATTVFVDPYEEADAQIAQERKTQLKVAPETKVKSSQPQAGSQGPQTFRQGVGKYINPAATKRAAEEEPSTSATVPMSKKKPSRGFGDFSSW
UniProt P78395, whole entry, looked up: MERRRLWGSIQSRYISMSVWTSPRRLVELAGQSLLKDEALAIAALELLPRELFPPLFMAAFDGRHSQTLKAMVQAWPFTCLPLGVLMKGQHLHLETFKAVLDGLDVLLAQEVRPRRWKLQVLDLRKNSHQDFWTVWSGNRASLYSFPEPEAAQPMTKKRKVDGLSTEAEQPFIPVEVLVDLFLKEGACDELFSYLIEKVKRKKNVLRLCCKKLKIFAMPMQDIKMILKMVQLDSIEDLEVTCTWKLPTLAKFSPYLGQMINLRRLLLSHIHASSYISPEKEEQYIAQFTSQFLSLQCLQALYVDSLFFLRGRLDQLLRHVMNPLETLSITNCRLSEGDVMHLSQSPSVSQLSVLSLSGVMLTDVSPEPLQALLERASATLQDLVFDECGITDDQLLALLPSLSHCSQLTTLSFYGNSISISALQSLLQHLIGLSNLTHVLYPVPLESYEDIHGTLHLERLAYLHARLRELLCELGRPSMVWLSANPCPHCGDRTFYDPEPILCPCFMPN
UniProt P67775, whole entry, looked up: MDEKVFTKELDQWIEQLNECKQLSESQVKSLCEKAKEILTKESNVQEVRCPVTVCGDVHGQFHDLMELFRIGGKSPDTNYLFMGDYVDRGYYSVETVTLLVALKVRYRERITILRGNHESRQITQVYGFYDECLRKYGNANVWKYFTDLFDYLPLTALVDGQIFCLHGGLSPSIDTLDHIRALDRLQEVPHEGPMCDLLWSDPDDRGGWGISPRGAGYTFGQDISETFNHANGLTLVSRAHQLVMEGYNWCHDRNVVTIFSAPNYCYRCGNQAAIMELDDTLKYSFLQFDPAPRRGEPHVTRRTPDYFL
UniProt Q5VTL8: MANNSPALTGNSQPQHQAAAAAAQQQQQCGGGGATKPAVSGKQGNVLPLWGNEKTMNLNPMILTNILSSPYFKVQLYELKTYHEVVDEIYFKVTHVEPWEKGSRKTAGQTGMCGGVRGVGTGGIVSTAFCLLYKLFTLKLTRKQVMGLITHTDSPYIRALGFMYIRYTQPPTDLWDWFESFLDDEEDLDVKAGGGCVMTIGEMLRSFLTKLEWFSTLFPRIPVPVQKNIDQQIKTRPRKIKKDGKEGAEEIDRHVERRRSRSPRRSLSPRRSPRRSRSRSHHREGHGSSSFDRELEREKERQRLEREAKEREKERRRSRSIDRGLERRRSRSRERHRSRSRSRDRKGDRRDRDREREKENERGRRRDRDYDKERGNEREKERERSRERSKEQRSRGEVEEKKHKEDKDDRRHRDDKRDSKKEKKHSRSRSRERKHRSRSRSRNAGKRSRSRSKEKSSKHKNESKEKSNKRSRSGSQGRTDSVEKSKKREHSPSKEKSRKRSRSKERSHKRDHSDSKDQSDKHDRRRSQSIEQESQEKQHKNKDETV

Assays:
Assay in all cases: log2 fold change, soluble protein after heating vs DMSO (PISA); higher = thermal stabilisation; K562 lysate, 10 uM; active = over 0.2 and 3.5 SD of the protein, either way, in both replicates (recomputed)
lapatinib = compound: CS(=O)(=O)CCNCc1ccc(-c2ccc3ncnc(Nc4ccc(OCc5cccc(F)c5)c(Cl)c4)c3c2)o1 [lapatinib]
Summary of the method: (§1)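 Following dounce homogenisation of K562 pellets in PBS pH 7.4 with 1 mM MgCl2, crude extract at 1 mg/mL protein was incubated for 30 min with 10 μM compound. Aliquots were then heated for 3 min over 48°C-58°C and pooled, NP-40 was added to 0.5% at 4°C, and soluble protein was recovered as the supernatant at 21,000xg for 90 min. Channel-sum-equalised TMTpro 16plex LC-MS/MS quantified this protein. Each value, from duplicates, is a log-two fold change in thermal stability relative to solvent controls.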

pictilisib = compound: CS(=O)(=O)N1CCN(Cc2cc3nc(-c4cccc5[nH]ncc45)nc(N4CCOCC4)c3s2)CC1 [pictilisib]
Summary of the method: as §1

crizotinib = compound: C[C@@H](Oc1cc(-c2cnn(C3CCNCC3)c2)cnc1N)c1c(Cl)ccc(F)c1Cl [crizotinib]
Summary of the method: as §1

[1] = compound: C[C@H](C1=CC=C(C=C1)C(=O)NC2=C3C=CNC3=NC=C2)N
Summary of the method: as §1

duvelisib = compound: C[C@H](Nc1ncnc2nc[nH]c12)c1cc2cccc(Cl)c2c(=O)n1-c1ccccc1 [duvelisib]
Summary of the method: as §1

gandotinib = compound: Cc1cc(Nc2cc(CN3CCOCC3)c3nc(C)c(Cc4ccc(Cl)cc4F)n3n2)n[nH]1 [gandotinib]
Summary of the method: as §1

tozasertib = compound: Cc1cc(Nc2cc(N3CCN(C)CC3)nc(Sc3ccc(NC(=O)C4CC4)cc3)n2)n[nH]1 [tozasertib]
Summary of the method: as §1

doramapimod = compound: Cc1ccc(-n2nc(C(C)(C)C)cc2NC(=O)Nc2ccc(OCCN3CCOCC3)c3ccccc23)cc1 [doramapimod]
Summary of the method: as §1

bafetinib = compound: Cc1ccc(NC(=O)c2ccc(CN3CC[C@H](N(C)C)C3)c(C(F)(F)F)c2)cc1Nc1nccc(-c2cncnc2)n1 [bafetinib]
Summary of the method: as §1

[2] = compound: Cc1cccc(CC(=O)N2CCc3c2ccc(-c2cn(C)c4ncnc(N)c24)c3F)n1
Summary of the method: as §1

nilotinib = compound: Cc1cn(-c2cc(NC(=O)c3ccc(C)c(Nc4nccc(-c5cccnc5)n4)c3)cc(C(F)(F)F)c2)cn1 [nilotinib]
Summary of the method: as §1

[3] = compound: Cc1nc(Nc2n[nH]c3c2CN(C(=O)N[C@H](CN(C)C)c2ccccc2)C3(C)C)c2sccc2n1
Summary of the method: as §1

dasatinib = compound: Cc1nc(Nc2ncc(C(=O)Nc3c(C)cccc3Cl)s2)cc(N2CCN(CCO)CC2)n1 [dasatinib]
Summary of the method: as §1

[4] = compound: Cc1ncc(-c2ccnc(Nc3ccc(S(C)(=O)=O)cc3)n2)n1C(C)C
Summary of the method: as §1

[5] = compound: Cn1cc(-c2ccc3c(c2)CCN3C(=O)Cc2cccc(C(F)(F)F)c2)c2c(N)ncnc21
Summary of the method: as §1

quisinostat = compound: Cn1cc(CNCC2CCN(c3ncc(C(=O)NO)cn3)CC2)c2ccccc21 [quisinostat]
Summary of the method: as §1

tipifarnib = compound: Cn1cncc1[C@@](N)(c1ccc(Cl)cc1)c1ccc2c(c1)c(-c1cccc(Cl)c1)cc(=O)n2C [tipifarnib]
Summary of the method: as §1

[6] = compound: NC(=O)Nc1cc(-c2cccc(F)c2)sc1C(=O)N[C@H]1CCCNC1
Summary of the method: as §1

[7] = compound: NC(=O)c1cnc(N[C@@H]2CCCC[C@@H]2N)nc1Nc1cccc(-n2nccn2)c1
Summary of the method: as §1

[8] = compound: NC1(c2ccc(-c3nc4ccn5c(=O)[nH]nc5c4cc3-c3ccccc3)cc2)CCC1
Summary of the method: as §1

Measured: log2 fold change

PREPL (UniProt Q4J6C6)
inactive: lapatinib 0.021 | pictilisib 0.016 | crizotinib 0.01 | [1] 0.005 | duvelisib 0.001 | gandotinib -0.023 | tozasertib 0.018 | doramapimod -0.014 | bafetinib -0.036 | [2] 0.002 | nilotinib -0.024 | [3] 0.018 | dasatinib 0.012 | [4] -0.02 | [5] 0.004 | quisinostat 0.014 | tipifarnib 0.015 | [6] 0.005 | [7] -0.02 | [8] 0.002

PRPF3 (UniProt O43395)
inactive: lapatinib 0.02 | pictilisib 0.022 | crizotinib -0.016 | [1] 0.08 | duvelisib -0.035 | gandotinib -0.053 | tozasertib -0.022 | doramapimod -0.008 | bafetinib -0.035 | [2] -0.048 | nilotinib -0.003 | [3] 0.037 | dasatinib -0.003 | [4] 0.012 | [5] 0.011 | quisinostat 0.019 | tipifarnib 0.004 | [6] 0.012 | [7] -0.004 | [8] 0.006

PPM1B (UniProt O75688)
inactive: lapatinib 0.013 | pictilisib -0.016 | crizotinib 0.004 | [1] -0.088 | duvelisib 0.004 | gandotinib 0.044 | tozasertib 0.005 | doramapimod 0.009 | bafetinib -0.038 | [2] 0.087 | nilotinib 0.006 | [3] -0.005 | dasatinib -0.003 | [4] 0.028 | [5] -0.004 | quisinostat -0.041 | tipifarnib -0.006 | [6] 0.005 | [7] 0.016 | [8] -0.02

PRKAR2B (UniProt P31323)
inactive: lapatinib 0.013 | pictilisib -0.059 | crizotinib -0.007 | [1] -0.011 | duvelisib 0 | tozasertib 0.038 | doramapimod 0.017 | bafetinib -0.02 | [2] 0.001 | nilotinib 0.023 | [3] -0.078 | dasatinib -0.104 | [4] 0.013 | [5] 0.031 | quisinostat 0.073 | tipifarnib 0.019 | [6] -0.1 | [7] -0.028 | [8] 0.013
active: gandotinib -0.31

PRKRA (UniProt O75569)
inactive: lapatinib 0.01 | pictilisib -0.003 | crizotinib -0.021 | [1] -0.017 | duvelisib 0 | gandotinib -0.094 | tozasertib -0.005 | doramapimod -0.01 | bafetinib -0.003 | [2] 0.032 | nilotinib 0 | [3] -0.001 | dasatinib -0.01 | [4] 0.034 | [5] 0.029 | quisinostat -0.058 | tipifarnib 0.016 | [6] 0.036 | [7] 0.012 | [8] -0.043

PRDX4 (UniProt Q13162)
inactive: lapatinib -0.01 | pictilisib 0.026 | crizotinib 0.053 | [1] -0.161 | duvelisib 0.026 | gandotinib 0.059 | tozasertib 0.036 | doramapimod 0.023 | bafetinib -0.007 | [2] 0.053 | nilotinib -0.042 | [3] 0.006 | dasatinib 0.01 | [4] -0.004 | [5] -0.006 | quisinostat -0.04 | tipifarnib -0.013 | [6] -0.018 | [7] 0.016 | [8] 0.01

PPP3CB (UniProt P16298)
inactive: lapatinib -0.052 | pictilisib -0.009 | crizotinib 0.013 | [1] -0.126 | duvelisib 0.011 | gandotinib 0.039 | tozasertib 0.002 | doramapimod -0.019 | bafetinib -0.002 | [2] 0.086 | nilotinib -0.017 | [3] 0.053 | dasatinib 0.045 | [4] 0 | [5] 0 | quisinostat -0.025 | tipifarnib 0.005 | [6] 0.009 | [7] 0.019 | [8] 0.001

Taken from the results shown (4 entries):
PRPF3 (UniProt O43395)
inactive: lapatinib 0.02 | pictilisib 0.022 | crizotinib -0.016 | [1] 0.08 | duvelisib -0.035 | gandotinib -0.053 | tozasertib -0.022 | doramapimod -0.008 | bafetinib -0.035 | [2] -0.048 | nilotinib -0.003 | [3] 0.037 | dasatinib -0.003 | [4] 0.012 | [5] 0.011 | quisinostat 0.019 | tipifarnib 0.004 | [6] 0.012 | [7] -0.004 | [8] 0.006

PPM1B (UniProt O75688)
inactive: lapatinib 0.013 | pictilisib -0.016 | crizotinib 0.004 | [1] -0.088 | duvelisib 0.004 | gandotinib 0.044 | tozasertib 0.005 | doramapimod 0.009 | bafetinib -0.038 | [2] 0.087 | nilotinib 0.006 | [3] -0.005 | dasatinib -0.003 | [4] 0.028 | [5] -0.004 | quisinostat -0.041 | tipifarnib -0.006 | [6] 0.005 | [7] 0.016 | [8] -0.02

PRKAR2B (UniProt P31323)
inactive: lapatinib 0.013 | pictilisib -0.059 | crizotinib -0.007 | [1] -0.011 | duvelisib 0 | tozasertib 0.038 | doramapimod 0.017 | bafetinib -0.02 | [2] 0.001 | nilotinib 0.023 | [3] -0.078 | dasatinib -0.104 | [4] 0.013 | [5] 0.031 | quisinostat 0.073 | tipifarnib 0.019 | [6] -0.1 | [7] -0.028 | [8] 0.013
active: gandotinib -0.31

PRKRA (UniProt O75569)
inactive: lapatinib 0.01 | pictilisib -0.003 | crizotinib -0.021 | [1] -0.017 | duvelisib 0 | gandotinib -0.094 | tozasertib -0.005 | doramapimod -0.01 | bafetinib -0.003 | [2] 0.032 | nilotinib 0 | [3] -0.001 | dasatinib -0.01 | [4] 0.034 | [5] 0.029 | quisinostat -0.058 | tipifarnib 0.016 | [6] 0.036 | [7] 0.012 | [8] -0.043

More entries follow:

PPP4R3B (UniProt Q5MIZ7)
inactive: lapatinib -0.016 | pictilisib -0.019 | crizotinib -0.062 | [1] -0.023 | duvelisib -0.015 | gandotinib 0.016 | tozasertib -0.06 | doramapimod -0.019 | bafetinib 0.008 | [2] 0.072 | nilotinib 0.019 | [3] -0.006 | dasatinib 0 | [4] -0.029 | [5] 0.024 | quisinostat -0.053 | tipifarnib 0.001 | [6] 0.027 | [7] 0.014 | [8] -0.001

PPP2R1A (UniProt P30153)
inactive: lapatinib -0.032 | pictilisib 0 | crizotinib 0.039 | [1] 0.026 | duvelisib 0 | gandotinib -0.055 | tozasertib 0.001 | doramapimod -0.013 | bafetinib 0.019 | [2] -0.031 | nilotinib 0.026 | [3] -0.008 | dasatinib -0.024 | [4] 0.01 | [5] 0.02 | quisinostat 0.085 | tipifarnib 0.008 | [6] -0.011 | [7] -0.001 | [8] 0.015

PRKRIP1 (UniProt Q9H875)
inactive: lapatinib -0.002 | pictilisib -0.003 | crizotinib 0.083 | [1] -0.006 | duvelisib 0.007 | gandotinib 0.008 | tozasertib 0.11 | doramapimod -0.008 | bafetinib 0.003 | [2] 0.017 | nilotinib 0 | [3] -0.031 | dasatinib 0.05 | [4] -0.006 | [5] 0 | quisinostat 0.016 | tipifarnib 0.017 | [6] -0.015 | [7] -0.012 | [8] -0.005

PPIL2 (UniProt Q13356)
inactive: lapatinib -0.034 | pictilisib -0.014 | crizotinib -0.037 | [1] -0.011 | duvelisib -0.047 | gandotinib -0.019 | tozasertib 0.047 | doramapimod 0.043 | bafetinib -0.022 | [2] 0.054 | nilotinib -0.032 | [3] 0.014 | dasatinib 0.064 | [4] 0.008 | [5] -0.004 | quisinostat -0.063 | tipifarnib -0.038 | [6] 0.018 | [7] -0.063 | [8] 0.011

PRAME (UniProt P78395)
inactive: lapatinib -0.012 | pictilisib -0.008 | crizotinib -0.08 | [1] -0.015 | duvelisib 0.005 | gandotinib -0.037 | tozasertib -0.013 | doramapimod 0.007 | bafetinib -0.062 | [2] 0.056 | nilotinib 0.028 | [3] 0.005 | dasatinib -0.004 | [4] 0.001 | [5] -0.017 | quisinostat -0.081 | tipifarnib -0.007 | [6] 0.053 | [7] -0.01 | [8] -0.006

PPP2CA (UniProt P67775)
inactive: lapatinib -0.028 | pictilisib -0.001 | crizotinib 0.159 | [1] 0.051 | duvelisib -0.024 | gandotinib -0.022 | tozasertib -0.116 | doramapimod -0.049 | bafetinib 0.053 | [2] 0.03 | nilotinib -0.009 | [3] 0.037 | dasatinib 0.017 | [4] 0.009 | [5] 0.057 | quisinostat 0.185 | tipifarnib 0.024 | [6] -0.093 | [7] -0.008 | [8] 0.023

PPP4R3A (UniProt Q6IN85)
inactive: lapatinib 0.017 | pictilisib -0.032 | crizotinib 0.008 | [1] -0.141 | duvelisib -0.012 | gandotinib 0.025 | tozasertib 0.024 | doramapimod 0.019 | bafetinib -0.04 | [2] 0.068 | nilotinib -0.005 | [3] 0.007 | dasatinib 0.092 | [4] 0.01 | [5] 0.015 | quisinostat -0.006 | tipifarnib 0.005 | [6] 0.011 | [7] -0.011 | [8] 0.004

PRPF38B (UniProt Q5VTL8)
inactive: lapatinib -0.006 | pictilisib -0.013 | crizotinib -0.004 | [1] -0.048 | duvelisib 0.035 | gandotinib -0.039 | tozasertib 0.028 | doramapimod -0.032 | bafetinib -0.005 | [2] 0.005 | nilotinib 0.03 | [3] -0.005 | dasatinib -0.003 | [4] -0.005 | [5] 0.014 | quisinostat -0.01 | tipifarnib -0.003 | [6] -0.011 | [7] -0.035 | [8] -0.028

PRPF18 (UniProt Q99633)
inactive: lapatinib 0.012 | pictilisib -0.024 | crizotinib -0.011 | [1] -0.008 | duvelisib -0.034 | gandotinib -0.006 | tozasertib -0.021 | doramapimod 0.103 | bafetinib 0.015 | [2] 0.014 | nilotinib -0.082 | [3] 0.21 | dasatinib 0.03 | [4] -0.042 | [5] -0.002 | quisinostat -0.045 | tipifarnib -0.086 | [6] 0.029 | [7] 0.02 | [8] 0.018
